Test results published in PMC6766977 (International Journal of Cancer, 2019).

Tested on: LNCaP
Experiment: Cell viability
Type: cell-based, human
Conditions: read-out: IC50 inhibition of cell viability LNCaP; 1 nM R1881, 6 days; mean ± SD

- IC50: 770 ± 360 nM
Structure (SMILES): CNC(=O)c1ccc(N2C(=S)N(c3ccc(C#N)c(C(F)(F)F)c3)C(=O)C2(C)C)cc1F [Enzalutamide, reference compound]
